Measurements as given in PMC7686350.
These are yes or no findings as the source states them, for the method shown. Binding seen in cells or lysates may run through a third protein. Binding calls can cover weak binding; strength is not graded here.

The chains behind the UniProt entries cited, without tags or fusion partners. Where a name states a change or a piece, a line headed by the entry shows the natural chain unless it says otherwise.
UniProt Q9WTN3: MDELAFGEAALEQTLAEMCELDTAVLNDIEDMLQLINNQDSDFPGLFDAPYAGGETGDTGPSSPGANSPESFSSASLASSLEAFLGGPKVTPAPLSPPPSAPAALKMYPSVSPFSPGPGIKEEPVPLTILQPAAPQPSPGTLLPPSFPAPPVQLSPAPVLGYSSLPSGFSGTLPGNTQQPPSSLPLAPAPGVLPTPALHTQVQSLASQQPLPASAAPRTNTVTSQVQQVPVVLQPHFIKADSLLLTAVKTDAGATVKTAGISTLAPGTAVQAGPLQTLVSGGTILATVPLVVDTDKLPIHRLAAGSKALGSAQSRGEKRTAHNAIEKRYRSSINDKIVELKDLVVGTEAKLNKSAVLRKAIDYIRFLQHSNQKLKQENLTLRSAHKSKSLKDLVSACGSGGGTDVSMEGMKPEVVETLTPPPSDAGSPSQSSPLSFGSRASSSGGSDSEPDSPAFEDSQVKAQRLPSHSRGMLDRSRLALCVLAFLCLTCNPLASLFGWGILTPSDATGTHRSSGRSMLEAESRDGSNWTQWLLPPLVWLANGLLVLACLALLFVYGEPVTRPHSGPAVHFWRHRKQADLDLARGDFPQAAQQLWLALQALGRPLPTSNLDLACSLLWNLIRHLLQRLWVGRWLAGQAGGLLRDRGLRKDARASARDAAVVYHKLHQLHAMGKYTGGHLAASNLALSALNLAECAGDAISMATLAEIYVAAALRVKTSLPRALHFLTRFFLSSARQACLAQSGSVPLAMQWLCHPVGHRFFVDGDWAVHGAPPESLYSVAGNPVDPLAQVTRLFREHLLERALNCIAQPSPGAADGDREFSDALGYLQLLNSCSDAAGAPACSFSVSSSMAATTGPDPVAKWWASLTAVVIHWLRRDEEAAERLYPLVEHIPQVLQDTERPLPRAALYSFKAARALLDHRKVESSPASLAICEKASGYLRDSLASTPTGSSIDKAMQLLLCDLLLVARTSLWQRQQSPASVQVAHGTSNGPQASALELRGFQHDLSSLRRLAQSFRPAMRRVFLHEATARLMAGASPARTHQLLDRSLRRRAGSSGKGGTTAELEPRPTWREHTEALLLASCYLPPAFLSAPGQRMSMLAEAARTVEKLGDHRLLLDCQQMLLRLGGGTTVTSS

Target: sterol-regulatory element binding protein-1 (SREBP1), endogenous in mouse liver (mouse (endogenous in mouse liver)) (UniProt Q9WTN3)
Test: co-IP; mouse liver extracts; mice fasted overnight and treated with vehicle or FGF19 for 2 h, or refed normal chow for the indicated times (C57BL/6, FGF15-KO mice or littermates); CoIP buffer 50 mM Tris-HCl pH 8.0, 150 mM NaCl, 2 mM EDTA, 0.5% NP-40, 5% glycerol; 1-2 ug antibody 3 h, protein G agarose; bound proteins detected by IB

B1: Small Heterodimer Partner (SHP/NR0B2), endogenous in mouse liver (protein, UniProt Q62227 1-260)
chain: MSSGQSGVCPCQGSAGRPTILYALLSPSPRTRPVAPASHSHCLCQQQRPVRLCAPHRTCREALDVLAKTVAFLRNLPSFCHLPHEDQRRLLECCWGPLFLLGLAQDAVTFEVAEAPVPSILKKILLEEASSGTQGAQPSDRPQPSLAAVQWLQRCLESFWSLELGPKEYAYLKGTILFNPDVPGLRASCHIAHLQQEAHWALCEVLEPWYPASQGRLARILLMASTLKNIPGTLLVDLFFRPIMGDVDITELLEDMLLLR
With B1 the binding was “binds”.
